The list shows a part of the results.
Assays:
Assay in all cases: log2 fold change, soluble protein after heating vs DMSO (PISA); higher = thermal stabilisation; K562 cells, 10 uM, 30 min; active = over 0.2 and 3.5 SD of the protein, either way, in both replicates (recomputed)
[1] = compound: CC1=C(C=C(C=C1)NC(=O)C2=CC(=CC=C2)C(C)(C)C#N)NC3=CC4=C(C=C3)N=CN(C4=O)C
How it was run: (§1)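 K562 cells at 2×10^6 cells/mL were treated for 30 min with 10 μM compound, and aliquots were heated for 3 min over 48°C-58°C before pooling. Extraction used PBS with 0.5% NP-40 at 4°C, and soluble protein was the supernatant after 21,000xg for 90 min, measured by TMTpro 16plex LC-MS/MS with channel sums equalised. Thermal stability values, relative to control samples and from duplicates, are log2 fold changes.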

Protein sequences, listed by entry. Tags and fused reporters are not part of them. Lines headed by an entry give the natural chain unless they say otherwise; changes in a name come on top.
UniProt Q9BZL6: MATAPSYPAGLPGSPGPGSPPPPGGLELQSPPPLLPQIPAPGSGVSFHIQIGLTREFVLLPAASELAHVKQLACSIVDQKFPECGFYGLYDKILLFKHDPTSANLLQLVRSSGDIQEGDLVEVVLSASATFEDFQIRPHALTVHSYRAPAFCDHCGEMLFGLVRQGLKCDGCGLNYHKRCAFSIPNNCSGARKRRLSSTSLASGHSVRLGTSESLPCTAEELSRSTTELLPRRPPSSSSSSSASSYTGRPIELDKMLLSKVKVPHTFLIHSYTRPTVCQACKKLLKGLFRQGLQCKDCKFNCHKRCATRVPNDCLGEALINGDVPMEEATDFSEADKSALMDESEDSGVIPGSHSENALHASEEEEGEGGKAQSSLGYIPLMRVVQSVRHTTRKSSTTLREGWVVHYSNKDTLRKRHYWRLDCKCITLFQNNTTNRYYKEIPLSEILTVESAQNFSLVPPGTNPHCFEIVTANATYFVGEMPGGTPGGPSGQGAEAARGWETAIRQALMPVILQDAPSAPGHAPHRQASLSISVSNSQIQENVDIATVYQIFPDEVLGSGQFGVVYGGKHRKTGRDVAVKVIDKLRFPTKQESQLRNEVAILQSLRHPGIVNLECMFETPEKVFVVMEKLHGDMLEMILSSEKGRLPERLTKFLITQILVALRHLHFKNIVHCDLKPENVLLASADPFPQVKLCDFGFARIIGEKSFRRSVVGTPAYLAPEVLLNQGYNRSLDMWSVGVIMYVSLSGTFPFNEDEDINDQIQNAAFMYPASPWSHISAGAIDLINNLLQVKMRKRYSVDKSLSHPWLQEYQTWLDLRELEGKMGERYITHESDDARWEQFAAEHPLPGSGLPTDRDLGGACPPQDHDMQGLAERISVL
UniProt P62140, whole entry, looked up: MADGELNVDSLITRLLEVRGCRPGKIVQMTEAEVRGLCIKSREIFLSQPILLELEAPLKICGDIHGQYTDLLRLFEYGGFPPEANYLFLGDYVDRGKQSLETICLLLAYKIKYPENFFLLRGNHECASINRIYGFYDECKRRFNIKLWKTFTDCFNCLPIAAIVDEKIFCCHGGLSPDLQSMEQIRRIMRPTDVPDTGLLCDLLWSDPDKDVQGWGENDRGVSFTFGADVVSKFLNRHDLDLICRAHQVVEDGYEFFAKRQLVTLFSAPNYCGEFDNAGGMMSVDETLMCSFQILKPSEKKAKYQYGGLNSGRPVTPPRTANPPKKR
UniProt Q4J6C6, whole entry, looked up: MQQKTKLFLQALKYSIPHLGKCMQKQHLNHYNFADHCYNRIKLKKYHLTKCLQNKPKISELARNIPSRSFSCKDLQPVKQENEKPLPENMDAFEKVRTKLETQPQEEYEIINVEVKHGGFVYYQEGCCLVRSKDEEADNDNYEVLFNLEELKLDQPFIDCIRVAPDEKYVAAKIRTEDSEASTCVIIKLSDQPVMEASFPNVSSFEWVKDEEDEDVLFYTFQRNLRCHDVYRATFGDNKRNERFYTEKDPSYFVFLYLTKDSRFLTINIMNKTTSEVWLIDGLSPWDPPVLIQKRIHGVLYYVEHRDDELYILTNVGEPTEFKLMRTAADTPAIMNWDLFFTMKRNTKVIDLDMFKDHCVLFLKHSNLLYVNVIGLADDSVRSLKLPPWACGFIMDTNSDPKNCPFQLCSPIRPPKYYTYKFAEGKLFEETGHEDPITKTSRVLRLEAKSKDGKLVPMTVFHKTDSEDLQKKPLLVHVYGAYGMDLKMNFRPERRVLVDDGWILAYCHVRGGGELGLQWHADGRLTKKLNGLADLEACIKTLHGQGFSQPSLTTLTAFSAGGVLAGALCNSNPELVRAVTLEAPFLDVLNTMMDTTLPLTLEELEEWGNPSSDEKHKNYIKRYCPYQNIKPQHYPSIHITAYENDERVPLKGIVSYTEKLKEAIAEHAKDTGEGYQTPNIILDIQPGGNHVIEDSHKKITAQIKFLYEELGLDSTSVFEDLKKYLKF
UniProt P48454, whole entry, looked up: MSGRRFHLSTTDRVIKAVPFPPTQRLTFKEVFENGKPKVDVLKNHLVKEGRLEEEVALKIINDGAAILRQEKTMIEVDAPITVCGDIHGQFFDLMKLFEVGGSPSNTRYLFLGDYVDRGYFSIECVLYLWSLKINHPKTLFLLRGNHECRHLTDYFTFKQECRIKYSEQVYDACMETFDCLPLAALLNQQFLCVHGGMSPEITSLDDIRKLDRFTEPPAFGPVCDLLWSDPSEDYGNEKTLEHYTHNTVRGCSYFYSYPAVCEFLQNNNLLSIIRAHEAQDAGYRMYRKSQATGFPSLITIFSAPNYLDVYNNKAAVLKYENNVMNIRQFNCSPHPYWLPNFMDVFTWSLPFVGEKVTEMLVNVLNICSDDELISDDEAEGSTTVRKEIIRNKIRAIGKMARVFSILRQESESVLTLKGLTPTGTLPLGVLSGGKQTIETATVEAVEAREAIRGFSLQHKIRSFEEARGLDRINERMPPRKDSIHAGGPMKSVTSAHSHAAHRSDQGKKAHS
UniProt O94806: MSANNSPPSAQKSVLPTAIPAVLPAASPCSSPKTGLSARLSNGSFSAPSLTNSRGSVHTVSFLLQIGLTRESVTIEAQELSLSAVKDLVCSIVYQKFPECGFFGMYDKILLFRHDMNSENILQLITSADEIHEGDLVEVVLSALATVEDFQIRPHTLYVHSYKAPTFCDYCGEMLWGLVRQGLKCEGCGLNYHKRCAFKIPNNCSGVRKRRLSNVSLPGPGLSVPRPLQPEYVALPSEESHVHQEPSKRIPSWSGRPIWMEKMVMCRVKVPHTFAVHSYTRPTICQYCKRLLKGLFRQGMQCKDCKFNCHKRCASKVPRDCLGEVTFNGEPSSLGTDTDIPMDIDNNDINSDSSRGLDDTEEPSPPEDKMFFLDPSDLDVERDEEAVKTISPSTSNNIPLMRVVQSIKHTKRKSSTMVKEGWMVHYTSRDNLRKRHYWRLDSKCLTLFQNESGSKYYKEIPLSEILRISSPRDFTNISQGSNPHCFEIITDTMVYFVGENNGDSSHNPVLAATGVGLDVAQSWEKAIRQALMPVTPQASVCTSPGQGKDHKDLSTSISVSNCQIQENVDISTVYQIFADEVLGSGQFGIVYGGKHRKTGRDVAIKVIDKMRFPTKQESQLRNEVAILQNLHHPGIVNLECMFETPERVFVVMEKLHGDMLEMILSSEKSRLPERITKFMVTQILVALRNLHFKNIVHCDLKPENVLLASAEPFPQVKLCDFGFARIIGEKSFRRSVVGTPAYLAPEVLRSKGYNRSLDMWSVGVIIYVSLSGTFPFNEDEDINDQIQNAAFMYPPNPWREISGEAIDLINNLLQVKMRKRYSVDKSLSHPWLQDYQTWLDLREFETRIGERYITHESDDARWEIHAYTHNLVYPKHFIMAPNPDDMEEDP
UniProt P41236: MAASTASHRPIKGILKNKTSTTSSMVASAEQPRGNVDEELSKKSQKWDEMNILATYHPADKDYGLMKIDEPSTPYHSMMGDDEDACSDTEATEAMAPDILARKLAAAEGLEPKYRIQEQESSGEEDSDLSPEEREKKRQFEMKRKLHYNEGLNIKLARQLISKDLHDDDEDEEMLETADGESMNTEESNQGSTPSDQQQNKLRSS
UniProt Q16537, whole entry, looked up: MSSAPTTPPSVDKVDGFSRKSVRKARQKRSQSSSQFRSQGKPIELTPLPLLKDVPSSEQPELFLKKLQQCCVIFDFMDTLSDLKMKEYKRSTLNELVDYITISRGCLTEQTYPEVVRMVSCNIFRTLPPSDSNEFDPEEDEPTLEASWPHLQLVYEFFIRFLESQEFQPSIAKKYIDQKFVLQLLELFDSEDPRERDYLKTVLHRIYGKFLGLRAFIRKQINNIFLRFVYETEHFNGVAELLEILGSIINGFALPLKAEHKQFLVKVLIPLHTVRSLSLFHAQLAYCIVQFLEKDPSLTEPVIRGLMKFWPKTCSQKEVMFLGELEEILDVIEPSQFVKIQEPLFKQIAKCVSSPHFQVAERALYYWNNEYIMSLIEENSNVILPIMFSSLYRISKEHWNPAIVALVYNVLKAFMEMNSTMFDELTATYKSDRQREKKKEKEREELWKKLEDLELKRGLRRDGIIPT
UniProt Q96SB3: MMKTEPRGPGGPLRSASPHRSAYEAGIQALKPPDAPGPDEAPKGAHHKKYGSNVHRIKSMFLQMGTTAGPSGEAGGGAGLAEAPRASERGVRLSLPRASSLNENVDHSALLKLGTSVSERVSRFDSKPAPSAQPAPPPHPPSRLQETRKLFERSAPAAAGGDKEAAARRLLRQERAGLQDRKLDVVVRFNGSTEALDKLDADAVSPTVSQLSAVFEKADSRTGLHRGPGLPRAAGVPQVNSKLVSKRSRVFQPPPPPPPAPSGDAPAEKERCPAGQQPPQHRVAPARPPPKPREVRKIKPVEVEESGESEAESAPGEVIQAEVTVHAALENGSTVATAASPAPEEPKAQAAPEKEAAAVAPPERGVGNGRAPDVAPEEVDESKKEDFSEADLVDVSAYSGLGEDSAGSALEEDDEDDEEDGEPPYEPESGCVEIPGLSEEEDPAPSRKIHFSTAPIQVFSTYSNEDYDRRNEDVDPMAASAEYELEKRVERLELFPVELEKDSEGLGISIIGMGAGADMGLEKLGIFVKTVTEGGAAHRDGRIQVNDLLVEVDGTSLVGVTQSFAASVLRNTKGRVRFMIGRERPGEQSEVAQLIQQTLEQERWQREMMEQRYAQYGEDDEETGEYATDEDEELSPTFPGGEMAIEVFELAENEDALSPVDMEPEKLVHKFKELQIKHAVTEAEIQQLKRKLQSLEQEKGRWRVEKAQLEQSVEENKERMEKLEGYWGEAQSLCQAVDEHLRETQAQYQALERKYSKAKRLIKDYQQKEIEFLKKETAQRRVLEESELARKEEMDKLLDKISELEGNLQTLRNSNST
UniProt P36873, whole entry, looked up: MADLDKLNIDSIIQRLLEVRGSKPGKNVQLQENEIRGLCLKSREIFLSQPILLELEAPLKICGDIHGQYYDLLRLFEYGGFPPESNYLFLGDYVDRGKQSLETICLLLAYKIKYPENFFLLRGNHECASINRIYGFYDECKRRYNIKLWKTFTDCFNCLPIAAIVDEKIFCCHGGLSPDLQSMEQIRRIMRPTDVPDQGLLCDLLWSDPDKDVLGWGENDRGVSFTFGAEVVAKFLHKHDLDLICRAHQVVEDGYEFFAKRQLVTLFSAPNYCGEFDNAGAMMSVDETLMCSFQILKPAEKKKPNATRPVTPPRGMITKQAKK
UniProt Q99633: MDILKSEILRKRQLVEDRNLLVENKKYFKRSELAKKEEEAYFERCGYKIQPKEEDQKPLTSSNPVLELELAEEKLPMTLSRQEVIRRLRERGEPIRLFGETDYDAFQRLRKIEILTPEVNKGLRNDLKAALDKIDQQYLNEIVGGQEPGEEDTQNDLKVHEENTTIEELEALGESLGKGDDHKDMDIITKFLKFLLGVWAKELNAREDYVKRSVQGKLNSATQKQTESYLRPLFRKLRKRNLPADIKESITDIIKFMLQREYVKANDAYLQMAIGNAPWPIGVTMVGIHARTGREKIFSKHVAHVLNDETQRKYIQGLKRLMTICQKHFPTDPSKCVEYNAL
UniProt Q9ULJ8: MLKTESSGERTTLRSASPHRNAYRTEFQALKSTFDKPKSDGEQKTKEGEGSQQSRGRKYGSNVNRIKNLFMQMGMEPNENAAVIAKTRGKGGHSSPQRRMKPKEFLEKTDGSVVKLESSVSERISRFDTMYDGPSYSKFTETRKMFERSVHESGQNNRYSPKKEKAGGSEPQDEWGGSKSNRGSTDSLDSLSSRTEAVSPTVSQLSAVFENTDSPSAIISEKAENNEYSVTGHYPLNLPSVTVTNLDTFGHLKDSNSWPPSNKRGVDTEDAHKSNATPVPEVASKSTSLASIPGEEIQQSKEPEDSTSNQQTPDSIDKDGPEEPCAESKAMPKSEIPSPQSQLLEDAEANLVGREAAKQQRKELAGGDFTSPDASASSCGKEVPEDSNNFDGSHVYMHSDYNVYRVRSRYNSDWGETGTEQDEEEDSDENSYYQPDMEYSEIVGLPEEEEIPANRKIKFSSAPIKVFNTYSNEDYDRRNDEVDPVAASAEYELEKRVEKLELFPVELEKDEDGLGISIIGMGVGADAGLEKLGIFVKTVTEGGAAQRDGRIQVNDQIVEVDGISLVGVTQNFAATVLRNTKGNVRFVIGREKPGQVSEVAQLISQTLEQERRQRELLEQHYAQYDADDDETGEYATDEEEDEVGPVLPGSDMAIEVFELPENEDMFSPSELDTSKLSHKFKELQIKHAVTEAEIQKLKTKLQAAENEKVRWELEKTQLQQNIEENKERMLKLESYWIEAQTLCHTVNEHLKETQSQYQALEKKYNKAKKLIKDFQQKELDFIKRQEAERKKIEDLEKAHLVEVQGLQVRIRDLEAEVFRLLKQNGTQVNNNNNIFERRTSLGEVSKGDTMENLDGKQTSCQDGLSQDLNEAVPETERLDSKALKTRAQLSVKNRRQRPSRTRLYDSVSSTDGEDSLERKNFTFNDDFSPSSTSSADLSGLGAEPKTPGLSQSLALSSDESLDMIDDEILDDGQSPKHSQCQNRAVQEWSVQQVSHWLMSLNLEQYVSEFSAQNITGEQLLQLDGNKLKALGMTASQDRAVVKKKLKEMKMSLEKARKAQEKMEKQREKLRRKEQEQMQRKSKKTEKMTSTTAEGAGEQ

[2] = compound: CC1=C(C=C(C=C1)NC(=O)C2=CC(=CC=C2)N(C)C)NC(=O)C3=CC=C(C=C3)O
How it was run: as §1

[3] = compound: CC1=CC=C(C=C1)SC2=C3C=C(SC3=CN=C2)C(=O)N
How it was run: as §1

[4] = compound: CC1=NC(=CC=C1)C2=C(N=C(N2)C(C)(C)C)C3=CC4=NC=CN=C4C=C3
How it was run: as §1

Nexturastat A = compound: CCCCN(Cc1ccc(C(=O)NO)cc1)C(=O)Nc1ccccc1 [Nexturastat A]
How it was run: as §1

vemurafenib = compound: CCCS(=O)(=O)Nc1ccc(F)c(C(=O)c2c[nH]c3ncc(-c4ccc(Cl)cc4)cc23)c1F [vemurafenib]
How it was run: as §1

[5] = compound: CCCS(=O)(=O)Nc1ccc(F)c(C(=O)c2c[nH]c3ncc(Cl)cc23)c1F
How it was run: as §1

[6] = compound: CCCc1cc(C)[nH]c(=O)c1CNC(=O)c1cc(-c2ccnc(N3CCN(C)CC3)c2)cc2c1cnn2C(C)C
How it was run: as §1

givinostat = compound: CCN(CC)Cc1ccc2cc(COC(=O)Nc3ccc(C(=O)NO)cc3)ccc2c1 [givinostat]
How it was run: as §1

barasertib = compound: CCN(CCCOc1ccc2c(Nc3cc(CC(=O)Nc4cccc(F)c4)[nH]n3)ncnc2c1)CCOP(=O)(O)O [barasertib]
How it was run: as §1

Measured: log2 fold change

PROS1 (UniProt P07225)
inactive: [1] -0.119 | [2] -0.006 | [3] 0.008 | [4] -0.013 | Nexturastat A 0.092 | vemurafenib 0.017 | [5] -0.055 | [6] -0.155 | givinostat -0.005 | barasertib 0.014

PPP2CB (UniProt P62714)
inactive: [1] 0.006 | [2] 0.006 | [3] -0.01 | [4] 0 | Nexturastat A -0.011 | vemurafenib 0.006 | [5] -0.012 | [6] -0.016 | givinostat -0.057 | barasertib 0.004

PRKD2 isoform 3 (UniProt Q9BZL6)
inactive: [1] 0.296 | [2] -0.26 | [3] 0.117 | [4] 0.028 | Nexturastat A 0.006 | vemurafenib 0.024 | [5] 0.058 | [6] 0.083 | givinostat -0.009 | barasertib 0.093

PPP1CB (UniProt P62140)
inactive: [1] -0.032 | [2] 0.018 | [3] 0.027 | [4] 0.088 | Nexturastat A -0.036 | vemurafenib 0.034 | [5] 0.047 | [6] -0.025 | givinostat -0.005 | barasertib 0.001

PREPL (UniProt Q4J6C6)
inactive: [1] 0.013 | [2] 0 | [3] 0.027 | [4] -0.013 | Nexturastat A 0.031 | vemurafenib -0.018 | [5] 0.04 | [6] -0.077 | givinostat 0.031 | barasertib 0.017

PPP4R2 (UniProt Q9NY27)
inactive: [1] -0.041 | [2] -0.006 | [3] -0.046 | [4] -0.029 | Nexturastat A -0.065 | vemurafenib 0.008 | [5] 0.043 | [6] 0.048 | givinostat 0.034 | barasertib 0.026

PPP3CB isoform 4 (UniProt P16298)
inactive: [1] -0.064 | [2] -0.016 | [3] 0.027 | [4] -0.036 | Nexturastat A -0.158 | vemurafenib -0.012 | [5] -0.019 | [6] -0.049 | givinostat -0.035 | barasertib 0.035

PRKACA (UniProt P17612)
inactive: [1] -0.002 | [2] -0.008 | [3] -0.023 | [4] 0.043 | Nexturastat A 0.099 | vemurafenib 0.015 | [5] 0.019 | [6] -0.019 | givinostat 0.006 | barasertib -0.008

PROSER2 (UniProt Q86WR7)
inactive: [1] -0.157 | [2] -0.039 | [3] 0.054 | [4] 0.057 | Nexturastat A 0.029 | vemurafenib -0.017 | [5] -0.114 | [6] -0.061 | givinostat -0.002 | barasertib 0.106

PPP3CC isoform 3 (UniProt P48454)
inactive: [1] -0.015 | [2] 0.035 | [3] 0.035 | [4] 0.055 | Nexturastat A -0.053 | vemurafenib 0.048 | [5] 0.002 | [6] 0.014 | givinostat 0.022 | barasertib -0.024

PPP4R3A (UniProt Q6IN85)
inactive: [1] -0.105 | [2] -0.033 | [3] 0.01 | [4] 0.007 | Nexturastat A -0.041 | vemurafenib -0.004 | [5] 0.005 | [6] -0.066 | givinostat 0.022 | barasertib 0.047

PROSER1 (UniProt Q86XN7)
inactive: [1] 0.067 | [2] 0.192 | [3] -0.034 | [5] 0.071

PRPH isoform 2 (UniProt P41219)
inactive: [1] -0.076 | [2] 0.033 | [3] -0.052 | [4] -0.278 | vemurafenib -0.082 | [5] -0.01 | [6] 0.053 | givinostat 0.045 | barasertib -0.035

PRKD3 (UniProt O94806)
inactive: [1] 0.096 | [2] -0.052 | [4] -0.012 | vemurafenib 0.294 | [6] 0.115 | givinostat -0.008 | barasertib 0.086

PPP6R2 isoform 5 (UniProt O75170)
inactive: [1] 0.018 | [2] 0.036 | [3] 0.021 | [4] -0.015 | Nexturastat A -0.042 | vemurafenib 0.054 | [5] 0.008 | [6] -0.089 | givinostat 0.018 | barasertib -0.004

PPP1R2 (UniProt P41236)
inactive: [1] -0.028 | [2] 0.023 | [3] 0.024 | [4] -0.002 | Nexturastat A -0.045 | vemurafenib -0.036 | [5] -0.041 | [6] -0.058 | givinostat -0.031 | barasertib 0.013

PPP2R5E (UniProt Q16537)
inactive: [1] -0.049 | [2] -0.065 | [3] -0.023 | [4] 0.066 | Nexturastat A 0.003 | vemurafenib 0.027 | [5] 0.07 | [6] 0.03 | givinostat 0.032 | barasertib 0.027

Quoted at random: two records from the list
PREPL (UniProt Q4J6C6)
inactive: [1] 0.013 | [2] 0 | [3] 0.027 | [4] -0.013 | Nexturastat A 0.031 | vemurafenib -0.018 | [5] 0.04 | [6] -0.077 | givinostat 0.031 | barasertib 0.017

PROS1 (UniProt P07225)
inactive: [1] -0.119 | [2] -0.006 | [3] 0.008 | [4] -0.013 | Nexturastat A 0.092 | vemurafenib 0.017 | [5] -0.055 | [6] -0.155 | givinostat -0.005 | barasertib 0.014

(continued)

PPP1R9B (UniProt Q96SB3)
inactive: [1] -0.044 | [2] 0.086 | [3] -0.09 | [4] -0.267 | Nexturastat A 0.333 | vemurafenib -0.03 | [5] 0.016 | [6] 0.111 | givinostat 0.047 | barasertib -0.047

PPP1CC isoform 2 (UniProt P36873)
inactive: [1] 0.034 | [2] 0.038 | [3] 0.016 | [4] 0.031 | Nexturastat A -0.033 | vemurafenib 0.006 | [5] 0.006 | [6] 0.036 | givinostat -0.11 | barasertib -0.003

PPT1 (UniProt P50897)
inactive: [1] -0.017 | [2] 0.009 | [3] 0.046 | [4] 0.013 | Nexturastat A -0.081 | vemurafenib 0 | [5] -0.003 | [6] -0.107 | givinostat -0.022 | barasertib -0.017

PRPF18 (UniProt Q99633)
inactive: [1] 0.035 | [3] -0.153 | [4] 0.056 | Nexturastat A 0.046 | vemurafenib 0.168 | [5] -0.121 | [6] -0.138 | givinostat -0.045 | barasertib 0.153

PPP1R12C (UniProt Q9BZL4)
inactive: [1] -0.048 | [2] 0.027 | [3] 0.124 | Nexturastat A 0.154 | vemurafenib -0.023 | [5] 0.265 | [6] 0.04 | givinostat 0.089 | barasertib 0.112

PPP5C (UniProt P53041)
inactive: [1] -0.038 | [2] -0.032 | [3] 0.014 | [4] 0.005 | Nexturastat A -0.042 | vemurafenib 0.029 | [5] 0.064 | [6] -0.014 | givinostat -0.109 | barasertib 0.013

PROCR (UniProt Q9UNN8)
inactive: [1] -0.089 | [3] -0.05 | [4] 0.115 | Nexturastat A -0.23 | vemurafenib 0 | [5] -0.074 | givinostat 0.096 | barasertib -0.03

PRSS2 (UniProt P07478)
inactive: [1] 0.034 | [3] -0.047 | [4] -0.001 | Nexturastat A 0.12 | vemurafenib -0.171 | [5] -0.054 | givinostat 0.079 | barasertib 0.009

PPP1R9A isoform 3 (UniProt Q9ULJ8)
inactive: [1] 0.056 | [2] 0.092 | [4] -0.196 | Nexturastat A 0.114 | vemurafenib 0.287 | [6] 0.096 | barasertib -0.109

PRG4 (UniProt Q92954)
inactive: [1] -0.099 | [2] 0.034 | [4] 0.106 | Nexturastat A -0.007 | vemurafenib 0.008 | [6] -0.069 | givinostat 0.102 | barasertib -0.023

PRCP (UniProt P42785)
inactive: [1] 0 | [2] 0.061 | [3] 0.022 | [4] -0.002 | Nexturastat A 0.072 | vemurafenib 0.008 | [5] 0.01 | [6] -0.082 | givinostat 0.035 | barasertib -0.008

PRKCG (UniProt P05129)
inactive: [1] 0.085 | [2] -0.117 | [3] -0.058 | [4] 0.021 | Nexturastat A -0.08 | vemurafenib -0.041 | [5] 0.034 | [6] 0.019 | givinostat -0.316 | barasertib -0.094

PRPS2 isoform 2 (UniProt P11908)
inactive: [1] -0.032 | [2] -0.039 | [3] -0.029 | [4] 0.011 | Nexturastat A -0.057 | vemurafenib -0.023 | [5] -0.01 | [6] -0.031 | givinostat 0.004 | barasertib -0.025

PPP3CA (UniProt Q08209)
inactive: [1] -0.002 | [2] 0.003 | [3] 0.052 | [4] 0.052 | vemurafenib -0.055 | [5] 0.019 | [6] 0.045 | givinostat -0.007 | barasertib 0.056

PRPF8 (UniProt Q6P2Q9)
inactive: [1] -0.016 | [2] -0.043 | [3] -0.101 | [4] -0.045 | Nexturastat A 0.023 | vemurafenib -0.035 | [5] -0.021 | [6] 0.03 | givinostat -0.013 | barasertib -0.023
